According to PMC3459911:
These are yes or no findings as the source states them, for the method shown. Binding seen in cells or lysates may run through a third protein. Some binding calls cover weakened binding; strength is not graded here. For some of these results: Tags and fused reporters may be left off the sequences shown. Each block holds one molecule with its values, some of them ahead of it.

The chains behind the UniProt entries cited, without tags or fusion partners.
UniProt Q8JZL2: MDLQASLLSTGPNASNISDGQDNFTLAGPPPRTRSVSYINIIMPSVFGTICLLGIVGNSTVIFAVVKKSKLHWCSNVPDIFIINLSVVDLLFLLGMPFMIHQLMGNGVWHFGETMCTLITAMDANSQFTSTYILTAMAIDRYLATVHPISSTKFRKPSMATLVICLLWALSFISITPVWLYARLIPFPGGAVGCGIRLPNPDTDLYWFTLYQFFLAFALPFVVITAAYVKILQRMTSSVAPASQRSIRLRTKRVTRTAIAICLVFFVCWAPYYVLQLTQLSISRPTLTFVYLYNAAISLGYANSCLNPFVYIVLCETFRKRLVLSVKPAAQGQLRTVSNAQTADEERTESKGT
UniProt P16858: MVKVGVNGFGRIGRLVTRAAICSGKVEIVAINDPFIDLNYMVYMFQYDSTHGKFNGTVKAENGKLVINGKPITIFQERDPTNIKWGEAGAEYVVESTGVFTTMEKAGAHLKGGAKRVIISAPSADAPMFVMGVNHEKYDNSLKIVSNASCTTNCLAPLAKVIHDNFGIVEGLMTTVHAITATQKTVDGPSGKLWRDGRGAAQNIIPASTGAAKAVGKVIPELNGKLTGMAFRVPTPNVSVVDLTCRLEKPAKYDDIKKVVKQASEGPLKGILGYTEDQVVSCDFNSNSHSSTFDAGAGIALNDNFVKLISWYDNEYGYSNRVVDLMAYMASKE
UniProt P30935: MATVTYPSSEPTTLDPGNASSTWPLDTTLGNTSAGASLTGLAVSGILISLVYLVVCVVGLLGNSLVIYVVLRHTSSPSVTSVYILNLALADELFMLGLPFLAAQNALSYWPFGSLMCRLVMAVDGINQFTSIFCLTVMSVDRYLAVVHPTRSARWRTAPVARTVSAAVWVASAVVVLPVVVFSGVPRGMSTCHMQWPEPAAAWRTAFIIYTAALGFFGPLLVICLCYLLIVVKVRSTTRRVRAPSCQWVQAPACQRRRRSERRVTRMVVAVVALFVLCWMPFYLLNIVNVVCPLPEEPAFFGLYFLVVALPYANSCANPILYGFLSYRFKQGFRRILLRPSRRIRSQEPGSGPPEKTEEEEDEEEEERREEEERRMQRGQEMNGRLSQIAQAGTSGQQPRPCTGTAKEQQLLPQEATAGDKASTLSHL
UniProt P63142: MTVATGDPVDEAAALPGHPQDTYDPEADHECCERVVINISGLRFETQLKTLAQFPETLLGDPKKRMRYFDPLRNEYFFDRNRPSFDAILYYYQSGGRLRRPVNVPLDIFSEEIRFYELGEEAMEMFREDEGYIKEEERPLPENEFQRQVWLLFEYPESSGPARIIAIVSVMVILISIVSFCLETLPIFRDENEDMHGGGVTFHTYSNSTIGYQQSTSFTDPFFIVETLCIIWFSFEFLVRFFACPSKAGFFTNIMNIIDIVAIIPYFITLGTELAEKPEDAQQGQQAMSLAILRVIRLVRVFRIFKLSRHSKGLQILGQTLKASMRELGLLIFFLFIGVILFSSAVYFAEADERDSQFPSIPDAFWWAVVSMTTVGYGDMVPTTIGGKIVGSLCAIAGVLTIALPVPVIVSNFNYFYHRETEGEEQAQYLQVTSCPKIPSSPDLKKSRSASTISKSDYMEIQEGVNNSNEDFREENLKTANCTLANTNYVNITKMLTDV

Tests used:
[1] = biological target: endogenous melanin-concentrating hormone receptor 1 (Mchr1) of mouse hippocampus (mouse (endogenous in hippocampus)) (UniProt Q8JZL2); experiment: co-IP; endogenous proteins; membrane protein enriched lysate of the hippocampus of 5 week old WT mice precipitated overnight at 4°C with goat anti-Mchr1 (goat IgG as negative control), blotted with rabbit anti-Sstr3
[2] = biological target: Mchr1 fused at the C-terminus to ECFP (UniProt Q8JZL2); experiment: FRET or BRET; sensitized emission FRET in live HEK293T cells co-transfected with Mchr1-ECFP and Sstr3-EYFP, imaged after 48 hours; cilium excluded from the analysis; n = 40 cells
[3] = biological target: myc-tagged melanin-concentrating hormone receptor 1 (Mchr1-myc) (UniProt Q8JZL2); experiment: co-IP; HEK293T cells cotransfected with Sstr3 and Mchr1-myc or Gapdh-myc; lysate (1% NP-40, 150 mM NaCl, Tris pH 8.0) precipitated overnight at 4°C with anti-myc (9E10) on protein A-sepharose, blotted with anti-Sstr3
[4] = biological target: myc-tagged glyceraldehyde-3-phosphate dehydrogenase (Gapdh-myc) (UniProt P16858); experiment: as above
[5] = biological target: somatostatin receptor 3 (Sstr3), untagged, expressed in HEK293T cells (UniProt P30935); experiment: co-IP; reverse experiment: HEK293T cells cotransfected with Sstr3 and Mchr1-myc or Gapdh-myc; lysate precipitated overnight at 4°C with goat anti-Sstr3 on protein A-sepharose, blotted with anti-myc
CFP-Kv1.2 = CFP-Kv1.2 (UniProt P63142); experiment: FRET or BRET; sensitized emission FRET, positive and negative controls (CFP-Kv1.2 with YFP-Kvβ2 or YFP-Kvβ2K235E); cells not stated for the controls

- binding [3]: binds
- binding [4]: no binding
Molecule: somatostatin receptor 3 (Sstr3), untagged, expressed in HEK293T cells (from UniProt P30935 1-428)

- binding [5]: binds
Molecule: myc-tagged melanin-concentrating hormone receptor 1 (Mchr1-myc) (from UniProt Q8JZL2 1-353)

Continued, molecule first:

Molecule: endogenous somatostatin receptor 3 (Sstr3) of mouse hippocampus (from UniProt P30935 1-428)
- binding [1]: binds

Molecule: Sstr3 fused at the C-terminus to EYFP (from UniProt P30935 1-428) (receptor)
- binding [2]: binds

B1: YFP-Kvβ2 (protein, UniProt P62483 1-367)
chain: MYPESTTGSPARLSLRQTGSPGMIYSTRYGSPKRQLQFYRNLGKSGLRVSCLGLGTWVTFGGQITDEMAEHLMTLAYDNGINLFDTAEVYAAGKAEVVLGNIIKKKGWRRSSLVITTKIFWGGKAETERGLSRKHIIEGLKASLERLQLEYVDVVFANRPDPNTPMEETVRAMTHVINQGMAMYWGTSRWSSMEIMEAYSVARQFNLIPPICEQAEYHMFQREKVEVQLPELFHKIGVGAMTWSPLACGIVSGKYDSGIPPYSRASLKGYQWLKDKILSEEGRRQQAKLKELQAIAERLGCTLPQLAIAWCLRNEGVSSVLLGASNAEQLMENIGAIQVLPKLSSSIVHEIDSILGNKPYSKKDYRS
- binding (CFP-Kv1.2): binds

B2: YFP-Kvβ2K235E (protein, UniProt P62483 1-367)
chain: MYPESTTGSPARLSLRQTGSPGMIYSTRYGSPKRQLQFYRNLGKSGLRVSCLGLGTWVTFGGQITDEMAEHLMTLAYDNGINLFDTAEVYAAGKAEVVLGNIIKKKGWRRSSLVITTKIFWGGKAETERGLSRKHIIEGLKASLERLQLEYVDVVFANRPDPNTPMEETVRAMTHVINQGMAMYWGTSRWSSMEIMEAYSVARQFNLIPPICEQAEYHMFQREKVEVQLPELFHEIGVGAMTWSPLACGIVSGKYDSGIPPYSRASLKGYQWLKDKILSEEGRRQQAKLKELQAIAERLGCTLPQLAIAWCLRNEGVSSVLLGASNAEQLMENIGAIQVLPKLSSSIVHEIDSILGNKPYSKKDYRS
- binding (CFP-Kv1.2): no binding
